# Experimental data reported in paper PMC9603084.
# How the values were obtained:
# [1] = molecular target: Ab-FAR-1^Δsp:eGFP (Aphelenchoides besseyi); experiment: co-IP; co-expressed in tobacco leaves by Agrobacterium, 48 h; total leaf proteins; immunoprecipitated with anti-GFP antibody, blotted with anti-Flag; Capturem IP & Co-IP Kit
# [2] = molecular target: Ab-FAR-1^Δsp:nYFP (Aphelenchoides besseyi); experiment: split reporter; BiFC: nYFP and cYFP fusions co-expressed in tobacco leaves by Agrobacterium, 48 h; YFP signal seen by fluorescence microscopy
Binder,binding [1],binding [2]
"AtADF3:Flag (protein, UniProt Q9ZSK4 1-139) MANAASGMAVHDDCKLKFMELKTKRTHRFIIYKIEELQKQVIVEKIGEPGQTHEDLAASLPADECRYAIFDFDFVSSEGVPRSRIFFVAWSPDTARVRSKMIYASSKDRFKRELDGIQVELQATDPTEMDLDVFKSRAN",binds,–
"AtADF3:cYFP (protein, UniProt Q9ZSK4 1-139) MANAASGMAVHDDCKLKFMELKTKRTHRFIIYKIEELQKQVIVEKIGEPGQTHEDLAASLPADECRYAIFDFDFVSSEGVPRSRIFFVAWSPDTARVRSKMIYASSKDRFKRELDGIQVELQATDPTEMDLDVFKSRAN",–,binds

# Results are given in words; binding and its absence hold for the method and conditions named. In cells and extracts the contact can be indirect. A result given as binding can be weak or reduced; the word gives no strength. Tags and fused reporters may be left off the sequences shown.
